{"source": "patent US20240390395A1", "about": "“APPLICATION OF ION CHANNEL BLOCKER IN TREATMENT AND/OR PREVENTION OF HEPATIC FIBROSIS” (Affiliated Hospital of Zunyi Medical University, priority 2023, published 2024)", "test_system": "α-SMA", "assay": "α-SMA in HSCs added with autophagy agonist rapamycin, Western blotting", "format": "cell-based, rat", "details": "HSCs-T6; rapamycin 100 nM added simultaneously with gliclazide 100 βM; TGF-β1 10 ng/ml; 48 hours; P<0.05", "description": "Experimental materials include HSCs-T6, rapamycin, a DMEM complete culture medium, cell culture dishes, a cell lysis solution, a PBS solution, a BCA protein assay kit, non-fat powdered milk, primary antibodies and corresponding secondary antibodies related to α-SMA, LC3, and p62.\nExperimental method is as follows. First, this experiment is divided into a normal group, a TGF-β1 group, a gliclazide +TGF-β1 group, and a gliclazide +TGF-β1 +rapamycin group. The concentration of the TGF-β1 is 10 ng/ml, the concentration of the gliclazide is 100 βM, and the concentration of the rapamycin is 100 nanomoles per liter (nM). The TGF-β1 is added at the same time as that in the embodiment 5, and rapamycin and gliclazide are added simultaneously. After 48 hours of incubation, the above groups are detected by the BCA protein assay kit and Western blotting.", "note": "At least one structure is not confirmed: it was looked up by name or label, or the drawing left a doubt."}
{"smiles": "CO[C@H]1C[C@@H]2CC[C@@H](C)[C@@](O)(O2)C(=O)C(=O)N2CCCC[C@H]2C(=O)O[C@H]([C@H](C)C[C@@H]2CC[C@@H](O)[C@H](OC)C2)CC(=O)[C@H](C)/C=C(\\C)[C@@H](O)[C@@H](OC)C(=O)[C@H](C)C[C@H](C)/C=C/C=C/C=C/1C", "note": "[rapamycin]", "values": [{"measurement": "protein expression level of α-SMA, gliclazide +TGF-β1 +rapamycin group compared with gliclazide +TGF-β1 group", "value": "significantly higher"}]}
